Measured values: patent US20240207235A1, “NANOEMULSION FORMULATION FOR TREATING DISBETES MELLITUS (DM)” (KING FAISAL UNIVERSITY, priority 2022, published 2024)
At least one compound was matched to its structure with a doubt left.

Experiment: In vitro release study of PGZ from NE formulations
Type: physicochemical
Conditions: free drug, 45 min after the start of the experiment

CCc1ccc(CCOc2ccc(CC3SC(=O)NC3=O)cc2)nc1 (stereo not shown) [PGZ, Pioglitazone]
in vitro release, maximum release value: 43.27±3.6%
